Reference: paper PMC10878140
Results are given in words; binding and its absence hold for the method and conditions named. Binding seen in cells or lysates may run through a third protein. Some binding calls cover weakened binding; strength is not graded here.

The chains behind the UniProt entries cited, without tags or fusion partners.
UniProt Q9H9S0: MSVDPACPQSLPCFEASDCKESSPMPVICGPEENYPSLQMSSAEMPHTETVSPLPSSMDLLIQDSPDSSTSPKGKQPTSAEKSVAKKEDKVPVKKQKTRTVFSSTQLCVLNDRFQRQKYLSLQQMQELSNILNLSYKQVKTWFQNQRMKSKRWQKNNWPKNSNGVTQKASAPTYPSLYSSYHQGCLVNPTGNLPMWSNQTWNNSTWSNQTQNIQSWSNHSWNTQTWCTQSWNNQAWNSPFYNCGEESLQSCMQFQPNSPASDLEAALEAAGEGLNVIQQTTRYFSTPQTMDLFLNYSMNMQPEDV
UniProt Q01860: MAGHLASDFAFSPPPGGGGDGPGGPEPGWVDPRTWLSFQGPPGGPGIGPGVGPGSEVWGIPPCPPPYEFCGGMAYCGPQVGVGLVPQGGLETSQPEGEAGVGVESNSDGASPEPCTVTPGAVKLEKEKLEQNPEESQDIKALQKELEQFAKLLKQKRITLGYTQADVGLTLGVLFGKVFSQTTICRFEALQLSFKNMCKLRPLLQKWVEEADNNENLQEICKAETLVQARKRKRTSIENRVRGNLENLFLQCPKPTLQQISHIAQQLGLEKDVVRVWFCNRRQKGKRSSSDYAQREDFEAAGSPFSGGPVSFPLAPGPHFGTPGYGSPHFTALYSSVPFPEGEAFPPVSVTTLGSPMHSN
UniProt P48431: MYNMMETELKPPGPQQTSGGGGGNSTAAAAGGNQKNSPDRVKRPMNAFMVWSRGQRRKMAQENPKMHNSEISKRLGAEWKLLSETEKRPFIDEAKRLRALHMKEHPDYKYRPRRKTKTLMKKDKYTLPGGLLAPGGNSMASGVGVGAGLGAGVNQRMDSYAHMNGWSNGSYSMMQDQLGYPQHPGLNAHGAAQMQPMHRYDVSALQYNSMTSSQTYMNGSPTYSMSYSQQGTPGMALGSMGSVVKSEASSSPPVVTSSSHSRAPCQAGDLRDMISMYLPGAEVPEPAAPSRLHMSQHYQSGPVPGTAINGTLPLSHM

Target: T1, POZ/BTB and AT hook containing zinc finger 1 (PATZ1) (human (endogenous in H1 hESCs)) (UniProt Q9HBE1)
T1 sequence: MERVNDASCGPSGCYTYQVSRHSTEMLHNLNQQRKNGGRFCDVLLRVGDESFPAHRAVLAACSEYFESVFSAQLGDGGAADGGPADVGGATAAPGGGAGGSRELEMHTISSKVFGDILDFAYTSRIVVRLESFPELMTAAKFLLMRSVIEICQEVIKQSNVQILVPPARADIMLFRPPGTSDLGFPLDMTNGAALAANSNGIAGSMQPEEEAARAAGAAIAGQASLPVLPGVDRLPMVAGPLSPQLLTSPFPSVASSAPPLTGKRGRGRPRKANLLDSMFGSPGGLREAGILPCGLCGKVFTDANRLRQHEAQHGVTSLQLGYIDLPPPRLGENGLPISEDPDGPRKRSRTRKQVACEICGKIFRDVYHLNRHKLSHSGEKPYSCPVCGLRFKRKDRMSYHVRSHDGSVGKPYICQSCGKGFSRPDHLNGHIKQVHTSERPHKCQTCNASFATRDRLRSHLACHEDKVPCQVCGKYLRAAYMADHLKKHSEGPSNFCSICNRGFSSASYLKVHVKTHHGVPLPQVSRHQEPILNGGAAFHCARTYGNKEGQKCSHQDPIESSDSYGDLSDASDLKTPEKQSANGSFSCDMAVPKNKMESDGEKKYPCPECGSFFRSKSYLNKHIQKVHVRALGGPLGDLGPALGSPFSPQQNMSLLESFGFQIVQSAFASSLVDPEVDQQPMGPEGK
Assay: co-IP; endogenous proteins, cells lysed in NP40 buffer with protease inhibitor cocktail; protein fraction incubated with Dynabeads-coupled primary antibodies overnight at 4 C; eluted by boiling in 2x SDS loading buffer, western blot

Substance | binding
NANOG (from UniProt Q9H9S0 1-305) | binds
OCT4 (from UniProt Q01860 1-360) | binds
SOX2 (from UniProt P48431 1-317) | binds
